Experiment [1] addresses T1, pyruvate dehydrogenase complex component X (PDHX), endogenous in HepG2 cells (human (endogenous in HepG2)) (UniProt O00330).
T1 sequence: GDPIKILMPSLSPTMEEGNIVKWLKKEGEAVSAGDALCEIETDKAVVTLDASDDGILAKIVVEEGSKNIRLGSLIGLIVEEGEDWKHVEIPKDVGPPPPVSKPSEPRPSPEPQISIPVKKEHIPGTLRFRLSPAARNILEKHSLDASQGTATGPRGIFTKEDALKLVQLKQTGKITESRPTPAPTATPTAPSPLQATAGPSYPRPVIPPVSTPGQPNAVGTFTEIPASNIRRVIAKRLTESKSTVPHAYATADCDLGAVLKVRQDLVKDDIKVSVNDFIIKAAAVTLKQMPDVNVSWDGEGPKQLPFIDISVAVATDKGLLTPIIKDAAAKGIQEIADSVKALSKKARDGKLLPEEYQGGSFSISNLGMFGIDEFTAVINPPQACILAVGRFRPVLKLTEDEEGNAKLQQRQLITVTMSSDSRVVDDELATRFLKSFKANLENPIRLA
Briefly: co-IP; endogenous IP with anti-PDHX antibody or IgG from HepG2 cells, immunoblotting (Fig. 2C; Fig. 3M: cells with NTC or p300 shRNA, further with Flag-EV or Flag-p300-HAT).

The chains behind the UniProt entries cited, without tags or fusion partners.
UniProt Q09472: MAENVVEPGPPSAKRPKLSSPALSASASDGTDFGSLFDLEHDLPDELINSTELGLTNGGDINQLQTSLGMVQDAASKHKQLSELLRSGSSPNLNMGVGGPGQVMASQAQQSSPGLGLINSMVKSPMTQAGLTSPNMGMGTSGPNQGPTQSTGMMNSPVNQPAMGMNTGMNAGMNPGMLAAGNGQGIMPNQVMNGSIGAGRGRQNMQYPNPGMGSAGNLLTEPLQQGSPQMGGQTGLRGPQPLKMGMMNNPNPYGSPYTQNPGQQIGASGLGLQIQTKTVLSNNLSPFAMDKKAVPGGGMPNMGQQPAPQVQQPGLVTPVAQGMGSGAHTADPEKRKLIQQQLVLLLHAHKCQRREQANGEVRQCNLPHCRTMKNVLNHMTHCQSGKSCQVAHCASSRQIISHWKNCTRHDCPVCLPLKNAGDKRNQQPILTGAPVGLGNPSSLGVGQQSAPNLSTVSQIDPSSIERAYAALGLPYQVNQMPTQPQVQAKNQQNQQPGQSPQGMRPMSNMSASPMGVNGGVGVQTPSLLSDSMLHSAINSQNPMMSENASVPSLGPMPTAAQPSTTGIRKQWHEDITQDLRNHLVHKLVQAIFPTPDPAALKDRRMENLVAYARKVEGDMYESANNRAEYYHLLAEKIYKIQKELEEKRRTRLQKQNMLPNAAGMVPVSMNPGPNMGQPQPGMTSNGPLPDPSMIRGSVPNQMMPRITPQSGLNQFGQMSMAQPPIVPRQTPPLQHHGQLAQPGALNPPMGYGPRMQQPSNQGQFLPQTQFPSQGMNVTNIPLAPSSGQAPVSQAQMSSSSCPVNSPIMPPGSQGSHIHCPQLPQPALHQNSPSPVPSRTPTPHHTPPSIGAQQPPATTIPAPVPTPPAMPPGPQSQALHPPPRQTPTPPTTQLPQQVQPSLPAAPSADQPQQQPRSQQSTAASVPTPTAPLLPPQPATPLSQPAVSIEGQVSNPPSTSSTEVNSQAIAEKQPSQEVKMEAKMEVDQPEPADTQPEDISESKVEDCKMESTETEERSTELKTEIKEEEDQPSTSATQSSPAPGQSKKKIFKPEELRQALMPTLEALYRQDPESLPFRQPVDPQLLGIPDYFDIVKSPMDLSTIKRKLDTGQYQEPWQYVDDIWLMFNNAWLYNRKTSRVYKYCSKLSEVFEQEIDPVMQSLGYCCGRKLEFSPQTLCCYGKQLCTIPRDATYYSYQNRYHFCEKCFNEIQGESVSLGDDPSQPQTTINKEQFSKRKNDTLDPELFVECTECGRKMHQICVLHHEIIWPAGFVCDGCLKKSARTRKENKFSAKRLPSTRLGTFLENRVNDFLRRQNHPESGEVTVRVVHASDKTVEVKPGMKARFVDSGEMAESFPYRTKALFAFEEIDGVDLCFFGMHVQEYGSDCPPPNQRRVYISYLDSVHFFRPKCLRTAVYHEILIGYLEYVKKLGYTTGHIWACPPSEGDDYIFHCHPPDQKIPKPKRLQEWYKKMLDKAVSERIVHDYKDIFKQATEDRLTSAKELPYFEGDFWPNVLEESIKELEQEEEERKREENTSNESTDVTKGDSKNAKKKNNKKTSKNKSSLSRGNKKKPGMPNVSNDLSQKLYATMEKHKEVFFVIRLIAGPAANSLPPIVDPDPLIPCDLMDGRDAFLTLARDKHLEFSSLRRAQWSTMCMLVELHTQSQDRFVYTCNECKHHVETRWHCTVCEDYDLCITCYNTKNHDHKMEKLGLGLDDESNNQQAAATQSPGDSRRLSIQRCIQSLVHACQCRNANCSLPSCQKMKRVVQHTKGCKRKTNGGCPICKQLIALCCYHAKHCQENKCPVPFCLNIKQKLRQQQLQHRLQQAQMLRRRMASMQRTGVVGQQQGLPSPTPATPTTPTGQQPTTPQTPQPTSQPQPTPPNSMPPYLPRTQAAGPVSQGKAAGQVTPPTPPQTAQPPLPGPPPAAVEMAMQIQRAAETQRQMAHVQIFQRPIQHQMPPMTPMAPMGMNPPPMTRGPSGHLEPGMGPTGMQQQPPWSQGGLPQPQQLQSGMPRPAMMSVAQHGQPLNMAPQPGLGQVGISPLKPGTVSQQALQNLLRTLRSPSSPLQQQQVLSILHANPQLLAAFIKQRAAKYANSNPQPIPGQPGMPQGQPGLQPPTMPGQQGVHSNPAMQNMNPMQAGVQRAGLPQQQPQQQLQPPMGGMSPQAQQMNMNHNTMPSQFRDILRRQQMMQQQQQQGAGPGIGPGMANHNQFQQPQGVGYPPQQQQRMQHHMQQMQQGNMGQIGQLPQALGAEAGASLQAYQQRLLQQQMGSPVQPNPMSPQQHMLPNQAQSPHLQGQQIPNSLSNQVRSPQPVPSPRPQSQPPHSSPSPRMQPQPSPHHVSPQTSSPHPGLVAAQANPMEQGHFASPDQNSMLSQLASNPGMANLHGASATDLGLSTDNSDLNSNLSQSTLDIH

In experiment [2] the target is T2, GST-PDHX K488R, purified from E. coli (UniProt O00330).
T2 sequence: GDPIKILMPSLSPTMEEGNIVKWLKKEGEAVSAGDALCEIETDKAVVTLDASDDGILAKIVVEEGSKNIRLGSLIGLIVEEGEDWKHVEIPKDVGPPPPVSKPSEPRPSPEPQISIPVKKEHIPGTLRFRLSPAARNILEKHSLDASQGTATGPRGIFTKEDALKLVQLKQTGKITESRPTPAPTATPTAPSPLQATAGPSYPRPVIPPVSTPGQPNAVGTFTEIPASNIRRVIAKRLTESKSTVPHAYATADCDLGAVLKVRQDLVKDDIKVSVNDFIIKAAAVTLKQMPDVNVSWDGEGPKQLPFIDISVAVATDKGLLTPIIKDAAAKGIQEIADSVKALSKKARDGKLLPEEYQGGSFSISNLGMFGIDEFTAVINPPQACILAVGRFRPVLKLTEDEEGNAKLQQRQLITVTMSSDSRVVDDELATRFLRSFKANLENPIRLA
The experiment can be described thus: pull-down; GST-PDHX WT, K488R and K488Q purified from E. coli, pull-down of DLAT (Fig. 3F); source of DLAT not told.

Experiment [3] addresses T3, GST-PDHX WT, purified from E. coli (UniProt O00330).
T3 sequence: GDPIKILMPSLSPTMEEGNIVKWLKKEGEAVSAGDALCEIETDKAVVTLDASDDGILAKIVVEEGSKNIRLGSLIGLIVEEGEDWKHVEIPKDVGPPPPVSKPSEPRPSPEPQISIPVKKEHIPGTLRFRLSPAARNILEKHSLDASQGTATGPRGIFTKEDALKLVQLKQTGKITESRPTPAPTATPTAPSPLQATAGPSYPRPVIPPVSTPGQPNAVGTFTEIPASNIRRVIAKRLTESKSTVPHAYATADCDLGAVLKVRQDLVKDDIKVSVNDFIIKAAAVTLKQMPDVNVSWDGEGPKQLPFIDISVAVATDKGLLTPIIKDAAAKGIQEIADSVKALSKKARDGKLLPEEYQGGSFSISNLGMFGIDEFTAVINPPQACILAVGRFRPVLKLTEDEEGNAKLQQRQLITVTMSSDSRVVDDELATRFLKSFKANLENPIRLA
Described as above.

Experiment [4] concerns the target T4, Flag-PDHX-WT, in THLE3 cells (UniProt O00330).
T4 sequence: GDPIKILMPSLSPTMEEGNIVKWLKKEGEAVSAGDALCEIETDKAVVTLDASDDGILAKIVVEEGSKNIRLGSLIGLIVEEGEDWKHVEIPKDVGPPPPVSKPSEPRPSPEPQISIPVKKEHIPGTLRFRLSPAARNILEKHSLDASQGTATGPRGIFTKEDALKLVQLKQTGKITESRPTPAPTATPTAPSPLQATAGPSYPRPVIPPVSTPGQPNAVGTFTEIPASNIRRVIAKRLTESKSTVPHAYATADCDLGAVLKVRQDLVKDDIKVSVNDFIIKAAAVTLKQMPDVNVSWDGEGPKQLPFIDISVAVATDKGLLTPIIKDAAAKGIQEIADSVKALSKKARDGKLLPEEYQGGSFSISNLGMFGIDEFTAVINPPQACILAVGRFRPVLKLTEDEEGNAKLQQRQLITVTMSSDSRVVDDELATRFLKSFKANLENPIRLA
The experiment can be described thus: co-IP; IP with anti-Flag antibody or IgG from THLE3 cells overexpressing Flag-PDHX-WT (Fig. 3G).

The target of experiment [5] is T5, Flag-PDHX-WT, in HepG2 cells (UniProt O00330).
T5 sequence: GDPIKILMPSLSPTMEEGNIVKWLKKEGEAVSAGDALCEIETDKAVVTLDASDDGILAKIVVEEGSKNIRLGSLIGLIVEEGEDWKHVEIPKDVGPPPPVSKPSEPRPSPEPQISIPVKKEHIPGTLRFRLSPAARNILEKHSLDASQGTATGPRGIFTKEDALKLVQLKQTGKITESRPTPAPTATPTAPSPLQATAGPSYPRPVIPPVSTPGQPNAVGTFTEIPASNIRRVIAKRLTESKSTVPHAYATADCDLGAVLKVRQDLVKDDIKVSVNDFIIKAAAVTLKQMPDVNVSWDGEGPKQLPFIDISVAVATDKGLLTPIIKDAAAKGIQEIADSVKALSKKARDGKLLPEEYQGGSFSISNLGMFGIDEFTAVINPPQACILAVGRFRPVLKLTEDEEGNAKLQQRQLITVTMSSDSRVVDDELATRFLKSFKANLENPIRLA
Briefly: co-IP; IP with anti-Flag antibody or IgG from HepG2 cells expressing Flag-PDHX-WT, -K488R, -K488Q or -Δ488; immunoblotting of DLAT and DLD (Fig. 3E, 3G, 3J; Fig. 3K with NTC or shp300; Fig. S3C with C646).

Experiment [6] has as its target T6, Flag-PDHX-K488R, in HepG2 cells (UniProt O00330).
T6 sequence: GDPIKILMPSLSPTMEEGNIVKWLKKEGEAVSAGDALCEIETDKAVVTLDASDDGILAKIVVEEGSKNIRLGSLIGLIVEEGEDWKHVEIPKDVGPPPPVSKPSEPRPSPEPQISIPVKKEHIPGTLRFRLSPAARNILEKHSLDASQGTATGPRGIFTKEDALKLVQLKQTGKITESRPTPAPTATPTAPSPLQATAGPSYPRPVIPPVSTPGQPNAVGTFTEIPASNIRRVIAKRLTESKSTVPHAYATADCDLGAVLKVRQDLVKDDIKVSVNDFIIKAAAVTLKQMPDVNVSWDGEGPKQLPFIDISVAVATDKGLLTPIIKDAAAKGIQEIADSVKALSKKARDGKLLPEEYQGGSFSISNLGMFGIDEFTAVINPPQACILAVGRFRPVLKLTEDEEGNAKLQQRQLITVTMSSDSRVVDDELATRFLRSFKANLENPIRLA
Described as above.

The target in experiment [7] is T1, pyruvate dehydrogenase complex component X (PDHX), endogenous in HepG2 cells (human (endogenous in HepG2)). The experiment can be described thus: co-IP; endogenous IP with anti-PDHX antibody or IgG from HepG2 cells, immunoblotting (Fig. 2C; Fig. 3M: cells with NTC or p300 shRNA, further with Flag-EV or Flag-p300-HAT). This is another data set of the same source.
Experiment [8] addresses T7, Flag-PDHX-WT, in HEK293T cells (UniProt O00330).
T7 sequence: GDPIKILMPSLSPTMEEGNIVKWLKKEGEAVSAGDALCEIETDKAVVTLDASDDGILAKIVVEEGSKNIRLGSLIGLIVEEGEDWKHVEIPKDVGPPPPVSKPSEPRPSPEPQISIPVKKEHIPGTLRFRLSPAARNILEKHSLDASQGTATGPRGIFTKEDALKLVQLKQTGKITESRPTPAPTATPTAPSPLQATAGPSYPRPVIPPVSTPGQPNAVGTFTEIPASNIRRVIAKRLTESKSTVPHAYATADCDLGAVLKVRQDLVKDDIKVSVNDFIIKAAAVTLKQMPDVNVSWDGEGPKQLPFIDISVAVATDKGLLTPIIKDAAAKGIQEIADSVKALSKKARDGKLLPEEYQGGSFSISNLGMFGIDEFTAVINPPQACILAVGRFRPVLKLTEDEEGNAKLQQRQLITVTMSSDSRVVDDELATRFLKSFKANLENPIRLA
Briefly: co-IP; IP with anti-Flag antibody or IgG from HEK293T cells transfected with Flag-tagged PDHX-WT, N-terminal, C-terminal and C-terminal with K488R mutation (Fig. 3I).

In PMC11700603 one finds binding data, which are given here for 5 molecules.

Like-named read-outs stand apart in the source and are kept apart here. No constants are given. Whether binding was seen depends on the method and setting. In cells and extracts the contact can be indirect. Some results given as binding are weak or reduced against the parent protein; the word gives no strength. For some assays here: Sequences can lack the tags named with a protein.

For “p300, endogenous in HepG2 cells (from UniProt Q09472 1-2414) (enzyme)”, in experiment [1], the binding entry is “binds”.

B1: DLAT used in the GST pull-down with GST-PDHX (enzyme, UniProt P10515 87-647)
chain: SLPPHQKVPLPSLSPTMQAGTIARWEKKEGDKINEGDLIAEVETDKATVGFESLEECYMAKILVAEGTRDVPIGAIICITVGKPEDIEAFKNYTLDSSAAPTPQAAPAPTPAATASPPTPSAQAPGSSYPPHMQVLLPALSPTMTMGTVQRWEKKVGEKLSEGDLLAEIETDKATIGFEVQEEGYLAKILVPEGTRDVPLGTPLCIIVEKEADISAFADYRPTEVTDLKPQVPPPTPPPVAAVPPTPQPLAPTPSAPCPATPAGPKGRVFVSPLAKKLAVEKGIDLTQVKGTGPDGRITKKDIDSFVPSKVAPAPAAVVPPTGPGMAPVPTGVFTDIPISNIRRVIAQRLMQSKQTIPHYYLSIDVNMGEVLLVRKELNKILEGRSKISVNDFIIKASALACLKVPEANSSWMDTVIRQNHVVDVSVAVSTPAGLITPIVFNAHIKGVETIANDVVSLATKAREGKLQPHEFQGGTFTISNLGMFGIKNFSAIINPPQACILAIGASEDKLVPADNEKGFDVASMMSVTLSCDHRVVDGAVGAQWLAEFRKYLEKPITMLL
In the case of B1, the binding entry in experiment [2] and in experiment [3] was “binds” in each case.

B2: dihydrolipoyl transacetylase (DLAT, E2), in THLE3 cells (enzyme, UniProt P10515 87-647)
chain: SLPPHQKVPLPSLSPTMQAGTIARWEKKEGDKINEGDLIAEVETDKATVGFESLEECYMAKILVAEGTRDVPIGAIICITVGKPEDIEAFKNYTLDSSAAPTPQAAPAPTPAATASPPTPSAQAPGSSYPPHMQVLLPALSPTMTMGTVQRWEKKVGEKLSEGDLLAEIETDKATIGFEVQEEGYLAKILVPEGTRDVPLGTPLCIIVEKEADISAFADYRPTEVTDLKPQVPPPTPPPVAAVPPTPQPLAPTPSAPCPATPAGPKGRVFVSPLAKKLAVEKGIDLTQVKGTGPDGRITKKDIDSFVPSKVAPAPAAVVPPTGPGMAPVPTGVFTDIPISNIRRVIAQRLMQSKQTIPHYYLSIDVNMGEVLLVRKELNKILEGRSKISVNDFIIKASALACLKVPEANSSWMDTVIRQNHVVDVSVAVSTPAGLITPIVFNAHIKGVETIANDVVSLATKAREGKLQPHEFQGGTFTISNLGMFGIKNFSAIINPPQACILAIGASEDKLVPADNEKGFDVASMMSVTLSCDHRVVDGAVGAQWLAEFRKYLEKPITMLL
Regarding B2, the binding entry in experiment [4] is recorded as “binds”.

B3: dihydrolipoyl transacetylase (DLAT, E2), in HepG2 cells (enzyme, UniProt P10515 87-647)
chain: SLPPHQKVPLPSLSPTMQAGTIARWEKKEGDKINEGDLIAEVETDKATVGFESLEECYMAKILVAEGTRDVPIGAIICITVGKPEDIEAFKNYTLDSSAAPTPQAAPAPTPAATASPPTPSAQAPGSSYPPHMQVLLPALSPTMTMGTVQRWEKKVGEKLSEGDLLAEIETDKATIGFEVQEEGYLAKILVPEGTRDVPLGTPLCIIVEKEADISAFADYRPTEVTDLKPQVPPPTPPPVAAVPPTPQPLAPTPSAPCPATPAGPKGRVFVSPLAKKLAVEKGIDLTQVKGTGPDGRITKKDIDSFVPSKVAPAPAAVVPPTGPGMAPVPTGVFTDIPISNIRRVIAQRLMQSKQTIPHYYLSIDVNMGEVLLVRKELNKILEGRSKISVNDFIIKASALACLKVPEANSSWMDTVIRQNHVVDVSVAVSTPAGLITPIVFNAHIKGVETIANDVVSLATKAREGKLQPHEFQGGTFTISNLGMFGIKNFSAIINPPQACILAIGASEDKLVPADNEKGFDVASMMSVTLSCDHRVVDGAVGAQWLAEFRKYLEKPITMLL
On to B3, for which the binding entry in experiment [5], in experiment [6] and in experiment [7] was “binds” in each case.

B4: dihydrolipoyl transacetylase (DLAT, E2), in HEK293T cells (enzyme, UniProt P10515 87-647)
chain: SLPPHQKVPLPSLSPTMQAGTIARWEKKEGDKINEGDLIAEVETDKATVGFESLEECYMAKILVAEGTRDVPIGAIICITVGKPEDIEAFKNYTLDSSAAPTPQAAPAPTPAATASPPTPSAQAPGSSYPPHMQVLLPALSPTMTMGTVQRWEKKVGEKLSEGDLLAEIETDKATIGFEVQEEGYLAKILVPEGTRDVPLGTPLCIIVEKEADISAFADYRPTEVTDLKPQVPPPTPPPVAAVPPTPQPLAPTPSAPCPATPAGPKGRVFVSPLAKKLAVEKGIDLTQVKGTGPDGRITKKDIDSFVPSKVAPAPAAVVPPTGPGMAPVPTGVFTDIPISNIRRVIAQRLMQSKQTIPHYYLSIDVNMGEVLLVRKELNKILEGRSKISVNDFIIKASALACLKVPEANSSWMDTVIRQNHVVDVSVAVSTPAGLITPIVFNAHIKGVETIANDVVSLATKAREGKLQPHEFQGGTFTISNLGMFGIKNFSAIINPPQACILAIGASEDKLVPADNEKGFDVASMMSVTLSCDHRVVDGAVGAQWLAEFRKYLEKPITMLL
Consider B4, for which the binding entry in experiment [8] is recorded as “binds”.
